The source of these data is patent US20080306243A1, “Hla-Binding Peptide, and Dna Fragment and Recombinant Vector Coding for Said Hla-Binding Peptide” (NEC CORPORATION, priority 2005, published 2008).

No constants are given. Whether binding was seen depends on the method and setting. Binding calls can cover weak binding; strength is not graded here.

In the assay the target is HLA-A2402 molecule, which is a product of the HLA-A*2402 gene (human). Briefly: cell-based peptide binding experiment, flow cytometry. Particulars: remark: other sources report otherwise.

B1: SEQ ID NO 12 (peptide)
peptide: WVLTAAHCI
As to B1, the binding entry was “binds”.
